Assay: Microdialysis probe in vivo recovery of LVFX by reverse dialysis
Design: species or system rat
Conditions: 2 μl/min

**Q.** For C[C@H]1COc2c(N3CCN(C)CC3)c(F)cc3c(=O)c(C(=O)O)cn1c23 [LVFX, Levofloxacin], which “mean in vivo recovery (R dial)” value (probe in blood, 5 μg/ml LVFX in ACD solution) is on record?
**A.** Its value is 32.31 ± 5.93%.

**Q.** And the “mean in vivo recovery (R dial)” value (probe in hippocampus ECF, 0.5 μg/ml LVFX in ACSF)?
**A.** Its value is 4.98 ± 0.42%.

**Q.** And the “mean in vivo recovery (R dial)” value (probe in lateral ventricle CSF, 0.5 μg/ml LVFX in ACSF)?
**A.** The value was 4.17 ± 0.43%.

From article PMC9804084, “Multiple drug transporters contribute to the brain transfer of levofloxacin” (CNS Neuroscience & Therapeutics, 2022)
